Patent US11572548B2, “Reaction mixture for synthesis of alpha1-2-fucosides” (The Regents of the University of California, priority 2015, dated 2023)
At least one read-out could not be matched to a standard name with certainty.

The chains behind the UniProt entries cited, without tags or fusion partners.
UniProt Q8DK72, entry or part of it: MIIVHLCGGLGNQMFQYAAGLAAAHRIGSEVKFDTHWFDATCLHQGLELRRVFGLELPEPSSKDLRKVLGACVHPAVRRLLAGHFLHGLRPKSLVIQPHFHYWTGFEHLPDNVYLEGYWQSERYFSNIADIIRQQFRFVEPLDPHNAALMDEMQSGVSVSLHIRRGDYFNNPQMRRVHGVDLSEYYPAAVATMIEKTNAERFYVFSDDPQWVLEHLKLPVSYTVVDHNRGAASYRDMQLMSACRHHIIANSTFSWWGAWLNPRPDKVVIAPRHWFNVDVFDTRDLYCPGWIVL

Target: His6-Te2FT (Thermosynechococcus vestitus, UniProt Q8DK72)
Experiment: Kinetics of α1-2-fucosyltransferase activity by HPLC assays
Assay type: biochemical, Thermosynechococcus elongatus BP-1
Conditions: 2FT activity; apparent; pH 6.0, 37° C.
Procedure: Typical enzymatic assays were carried out in duplicate in a total volume of 10 μL in Tris-HCl buffer (pH 6.0, 200 mM) containing MgCl2 (20 mM), GDP-fucose, Galβ1-3GlcNAcβ2AA, and the recombinant His6-Te2FT (0.75 μg). All reactions were allowed to proceed for 10 min at 37° C. Apparent kinetic parameters were obtained by varying the GDP-fucose concentration from 0.1 to 10.0 mM (0.1, 0.2, 0.4, 1.0, 5.0, and 10.0 mM) and a fixed concentration of Galβ1-3GlcNAcβ2AA (1 mM); or a fixed concentration of GDP-fucose (1 mM) and varied concentrations of Galβ1-3GlcNAcβ2AA from 0.1 to 10.0 mM (0.1, 0.2, 0.4, 5.0, and 10.0 mM). The reaction mixture was quenched by boiling for 2 minutes and diluted 60-fold for detection. Apparent kinetic parameters were obtained by fitting the data into the Michaelis-Menten equation using Grafit 5.0.

Galβ1-3GlcNAcβ2AA was tested, and the kcat/KM was 422 M⁻¹ s⁻¹.
